Assay results published in article PMC8274477.
No constants are given. Whether binding was seen depends on the method and setting. Some results given as binding are weak or reduced against the parent protein; the word gives no strength.

Protein sequences, listed by entry. Tags and fused reporters are not part of them.
UniProt Q96AH0: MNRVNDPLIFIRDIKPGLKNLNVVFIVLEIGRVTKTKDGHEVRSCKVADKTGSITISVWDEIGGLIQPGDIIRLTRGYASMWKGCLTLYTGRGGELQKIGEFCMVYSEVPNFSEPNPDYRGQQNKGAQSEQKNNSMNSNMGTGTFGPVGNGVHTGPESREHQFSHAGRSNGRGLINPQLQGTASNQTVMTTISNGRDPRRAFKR

How the values were obtained:
Experiment in all cases: peptide or protein array; HuProt human proteome microarray; 5 ug/5 ml biotin-labelled LUBAC or OTULIN in solution, 1 h at room temperature; Cy5-streptavidin, scanned at 635 nm; BSA as negative control; hits: Z-score >= 3 and I_(Mean_Ratio) >= 1.4; both purified
RBMS2 (human) = molecular target: T1, RBMS2 (human) (UniProt Q15434)
T1 sequence: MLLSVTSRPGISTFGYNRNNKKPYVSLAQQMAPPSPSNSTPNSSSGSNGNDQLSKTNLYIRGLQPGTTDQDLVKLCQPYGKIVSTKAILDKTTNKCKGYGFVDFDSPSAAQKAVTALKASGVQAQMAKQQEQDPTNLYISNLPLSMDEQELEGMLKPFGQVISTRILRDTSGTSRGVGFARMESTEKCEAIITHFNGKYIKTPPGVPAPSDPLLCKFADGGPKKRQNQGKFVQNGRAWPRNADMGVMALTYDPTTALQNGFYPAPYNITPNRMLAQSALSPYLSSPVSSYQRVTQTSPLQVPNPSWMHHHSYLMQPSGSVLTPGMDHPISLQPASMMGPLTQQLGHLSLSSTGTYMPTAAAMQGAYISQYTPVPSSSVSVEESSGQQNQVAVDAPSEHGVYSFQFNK

HCFC2 (human) = molecular target: T2, HCFC2 (human) (UniProt Q9Y5Z7)
T2 sequence: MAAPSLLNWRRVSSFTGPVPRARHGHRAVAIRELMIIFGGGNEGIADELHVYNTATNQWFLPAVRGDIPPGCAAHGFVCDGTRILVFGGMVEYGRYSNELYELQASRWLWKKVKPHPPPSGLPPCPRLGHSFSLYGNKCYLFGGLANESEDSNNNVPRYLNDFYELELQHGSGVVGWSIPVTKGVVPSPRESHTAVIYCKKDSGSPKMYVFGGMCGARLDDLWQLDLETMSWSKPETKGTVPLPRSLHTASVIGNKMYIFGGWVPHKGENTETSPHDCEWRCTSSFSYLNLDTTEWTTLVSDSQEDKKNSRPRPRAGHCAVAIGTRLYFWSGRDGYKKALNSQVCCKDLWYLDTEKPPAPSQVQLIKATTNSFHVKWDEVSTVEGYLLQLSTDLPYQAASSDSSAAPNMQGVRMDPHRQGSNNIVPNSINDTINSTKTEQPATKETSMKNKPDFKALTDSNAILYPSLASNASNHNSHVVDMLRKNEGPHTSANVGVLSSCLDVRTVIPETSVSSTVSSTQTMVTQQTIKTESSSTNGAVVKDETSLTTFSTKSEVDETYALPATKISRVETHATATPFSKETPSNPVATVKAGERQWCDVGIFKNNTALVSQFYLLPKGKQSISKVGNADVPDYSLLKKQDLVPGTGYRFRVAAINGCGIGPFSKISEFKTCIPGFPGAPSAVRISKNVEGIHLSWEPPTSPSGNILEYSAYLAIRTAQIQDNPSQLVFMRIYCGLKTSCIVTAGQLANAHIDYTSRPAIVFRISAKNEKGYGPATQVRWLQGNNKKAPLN

NABP1 (human) = NABP1 (human) (UniProt Q96AH0)
C11orf1 (human) = molecular target: T3, C11orf1 (human) (UniProt Q9H5F2)
T3 sequence: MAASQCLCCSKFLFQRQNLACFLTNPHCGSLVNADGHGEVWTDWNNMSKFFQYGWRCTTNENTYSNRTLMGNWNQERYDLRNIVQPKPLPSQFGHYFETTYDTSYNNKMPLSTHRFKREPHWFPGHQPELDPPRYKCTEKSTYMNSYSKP

GCLM (human) = molecular target: T4, GCLM (human) (UniProt P48507)
T4 sequence: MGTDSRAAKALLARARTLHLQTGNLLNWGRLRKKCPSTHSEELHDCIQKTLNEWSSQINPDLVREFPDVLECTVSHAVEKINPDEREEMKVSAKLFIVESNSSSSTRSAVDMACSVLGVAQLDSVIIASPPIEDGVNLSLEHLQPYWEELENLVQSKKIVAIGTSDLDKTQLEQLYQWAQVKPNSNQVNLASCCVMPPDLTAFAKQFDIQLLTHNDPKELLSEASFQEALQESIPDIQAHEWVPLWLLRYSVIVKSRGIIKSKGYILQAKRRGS

SH3GLB2 (human) = molecular target: T5, SH3GLB2 (human) (UniProt Q9NR46)
T5 sequence: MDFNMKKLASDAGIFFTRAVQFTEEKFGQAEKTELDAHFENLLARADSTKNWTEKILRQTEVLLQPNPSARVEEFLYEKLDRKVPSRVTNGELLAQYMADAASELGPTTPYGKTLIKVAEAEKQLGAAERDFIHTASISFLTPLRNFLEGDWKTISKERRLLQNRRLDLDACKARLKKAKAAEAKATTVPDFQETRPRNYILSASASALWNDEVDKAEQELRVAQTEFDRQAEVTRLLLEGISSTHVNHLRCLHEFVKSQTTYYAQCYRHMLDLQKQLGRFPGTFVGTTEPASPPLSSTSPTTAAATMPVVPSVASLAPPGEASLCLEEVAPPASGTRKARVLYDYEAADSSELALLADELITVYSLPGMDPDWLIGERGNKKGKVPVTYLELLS

Measured: binding

linear ubiquitin chain assembly complex (LUBAC), purified as HIS-tagged HOIP with the subunit HOIL-1, biotin-labelled (from UniProt Q96EP0 1-1072; Q9BYM8 1-510)
binds: all assays above
